Results: article PMC12430012
These are yes or no findings as the source states them, for the method shown. In cells and extracts the contact can be indirect. Some binding calls cover weakened binding; strength is not graded here.

Amino acid sequences for entries named in this document (tags omitted). A change or cut given only in a name is not applied to a line headed by its entry. Chains listed by the source or under a name are the forms on record and can include a tag or linker. Residues count along the entry.
Myc-tagged DNAJB11 T188A (Q9UBS4, form named): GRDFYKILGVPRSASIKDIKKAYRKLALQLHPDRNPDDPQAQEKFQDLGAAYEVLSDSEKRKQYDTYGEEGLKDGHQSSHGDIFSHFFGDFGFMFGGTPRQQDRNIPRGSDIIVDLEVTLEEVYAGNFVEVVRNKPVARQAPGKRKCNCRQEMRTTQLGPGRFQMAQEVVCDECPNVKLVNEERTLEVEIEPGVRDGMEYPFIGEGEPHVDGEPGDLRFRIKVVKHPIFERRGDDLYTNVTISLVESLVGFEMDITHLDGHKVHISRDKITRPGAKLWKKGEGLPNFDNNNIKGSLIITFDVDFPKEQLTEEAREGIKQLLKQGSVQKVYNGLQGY
Myc-tagged DNAJB11 T188E (Q9UBS4, form named): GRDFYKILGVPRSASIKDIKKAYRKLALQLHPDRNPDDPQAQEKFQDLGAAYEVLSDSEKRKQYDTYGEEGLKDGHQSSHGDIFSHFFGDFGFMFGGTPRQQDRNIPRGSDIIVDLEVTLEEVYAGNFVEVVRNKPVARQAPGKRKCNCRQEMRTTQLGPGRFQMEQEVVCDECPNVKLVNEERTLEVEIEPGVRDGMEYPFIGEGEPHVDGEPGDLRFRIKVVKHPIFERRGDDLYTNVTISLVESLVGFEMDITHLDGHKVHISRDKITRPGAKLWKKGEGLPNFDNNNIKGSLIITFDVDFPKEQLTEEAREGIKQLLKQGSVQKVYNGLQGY
UniProt P11021, residues 19-654: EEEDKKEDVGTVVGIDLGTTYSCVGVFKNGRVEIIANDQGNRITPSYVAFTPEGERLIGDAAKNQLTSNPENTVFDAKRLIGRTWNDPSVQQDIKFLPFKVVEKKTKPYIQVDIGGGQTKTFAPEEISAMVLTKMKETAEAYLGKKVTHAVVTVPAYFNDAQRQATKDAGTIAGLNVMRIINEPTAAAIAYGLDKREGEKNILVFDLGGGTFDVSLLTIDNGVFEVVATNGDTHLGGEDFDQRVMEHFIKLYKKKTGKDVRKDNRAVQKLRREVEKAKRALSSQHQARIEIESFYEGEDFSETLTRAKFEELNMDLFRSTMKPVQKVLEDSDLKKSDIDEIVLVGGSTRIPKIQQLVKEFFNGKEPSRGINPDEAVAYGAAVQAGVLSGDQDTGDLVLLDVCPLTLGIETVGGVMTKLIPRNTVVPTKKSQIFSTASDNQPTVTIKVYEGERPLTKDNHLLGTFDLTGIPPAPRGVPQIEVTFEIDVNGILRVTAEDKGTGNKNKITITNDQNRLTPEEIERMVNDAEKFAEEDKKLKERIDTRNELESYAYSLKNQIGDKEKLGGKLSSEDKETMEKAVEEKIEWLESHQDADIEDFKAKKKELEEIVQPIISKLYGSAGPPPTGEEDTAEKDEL
UniProt P11142: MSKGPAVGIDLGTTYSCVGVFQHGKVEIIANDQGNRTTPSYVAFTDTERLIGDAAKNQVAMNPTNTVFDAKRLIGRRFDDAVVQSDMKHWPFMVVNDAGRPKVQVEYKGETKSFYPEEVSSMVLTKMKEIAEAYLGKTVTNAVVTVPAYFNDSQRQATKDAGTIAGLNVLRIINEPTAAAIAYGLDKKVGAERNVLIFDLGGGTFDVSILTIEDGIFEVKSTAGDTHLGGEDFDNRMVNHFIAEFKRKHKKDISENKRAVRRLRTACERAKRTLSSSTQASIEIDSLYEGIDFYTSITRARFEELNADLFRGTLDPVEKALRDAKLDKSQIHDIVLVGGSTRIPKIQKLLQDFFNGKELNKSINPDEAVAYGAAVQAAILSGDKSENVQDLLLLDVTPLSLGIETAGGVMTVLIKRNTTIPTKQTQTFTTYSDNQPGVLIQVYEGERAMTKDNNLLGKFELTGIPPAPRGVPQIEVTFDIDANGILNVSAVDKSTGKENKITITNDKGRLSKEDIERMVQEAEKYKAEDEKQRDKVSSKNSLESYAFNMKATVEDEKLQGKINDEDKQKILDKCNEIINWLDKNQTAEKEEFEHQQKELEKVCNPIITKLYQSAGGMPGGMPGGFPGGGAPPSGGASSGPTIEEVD

Key:
[1] = biological target: Myc-tagged DNAJB11 T188A (human) (UniProt Q9UBS4); assay: co-IP; SH-SY5Y cells expressing Myc-DNAJB11 (WT or mutants), etoposide 48 h; IP with anti-Myc, blots anti-BIP and anti-HSPA8
[2] = biological target: Myc-tagged DNAJB11 T188E (human) (UniProt Q9UBS4); assay: as above

In the case of BIP (from UniProt P11021 19-654), the binding [1] is reported as “binds” and the binding [2] is reported as “binds”.

In the case of HSPA8 (from UniProt P11142 1-646), the binding [1] is reported as “no binding” and the binding [2] is reported as “no binding”.
